Source: paper PMC12040169 (PLOS Biology, 2025)
This is one part of the list.

tested on: T1, CTL2-GFP (C. trachomatis L2/434/Bu, GFP-expressing); parameters: species or system HeLa; Intracellular C. trachomatis growth in HeLa cells, bulk GFP fluorescence relative to DMSO; conditions: bulk GFP, single well; 28.5 h, 10 µM; inhibitor
T1 construct: L2/434/Bu, GFP-expressing

Row | SMILES | % of control remaining [%]
1 | O=S(=O)(Nc1nccnc1-c1ccc2c(c1)OCO2)c1ccc(Cl)cc1 [CBK050952] | 107.929
2 | N=C1OC2CSCC2N1C(=O)Cc1c(F)cccc1Cl (stereo not shown) [CBK284517] | 134.148
3 | Cc1ccc(C(C)C)c(OCC(=O)Nc2cc(-c3nc4ccccc4[nH]3)ccc2C)c1 [CBK268724] | 118.217
4 | CSCCCNC(=O)c1cncc(-c2ccc(C(=O)N3CCOCC3)cc2)c1 [CBK158610] | 113.402
5 | OCC1CCCN1c1nccnc1-c1cccc(O)c1 (stereo not shown) [CBK089052] | 92.9465
6 | COc1cc(CNC(=O)C(C)SCc2ccccc2)ccn1 (stereo not shown) [CBK298331] | 115.714
7 | CCOC(=O)NC(=O)Nc1cc2ccccc2c(Br)n1 [CBK063282] | 115.94
8 | Cc1cc(Cl)c(S(=O)(=O)Nc2ccon2)cc1OCC(=O)NC1CCCCC1 [CBK266785] | 104.943
9 | Oc1ccccc1Sc1cnccn1 [CBK085840] | 96.0109
10 | Cc1ccc(S(N)(=O)=O)cc1NC(=O)c1ccco1 [CBK004204] | 122.089
11 | CC[C@H]1CN(C(C)=O)CC[C@H]1CC(=O)NCc1ccc2c(c1)OCO2 [CBK289131] | 128.343
12 | CCc1noc(C)c1C(=O)Nc1ncc(C)s1 [CBK288244] | 116.518
13 | COC(=O)c1ncn(CC(=O)N2CCCCCC2)n1 [CBK305184] | 112.683
14 | CC(=O)c1cccc(NC(=O)CCCn2cc([N+](=O)[O-])cn2)c1 [CBK268911] | 105.649
15 | CCn1ncc(CN2CCCCCC2c2cc(C)no2)c1C (stereo not shown) [CBK283008] | 126.712
16 | CCNC(=O)NC[C@H]1C[C@@H]2CCN1C[C@@H]2c1cc(C2CCCC2)nc(C)n1 [CBK289122] | 152.255
17 | CN1C(=O)[C@@H](OC(=O)c2cccnc2)C[C@H]1c1ccc(F)cc1 [CBK283649] | 115.681
18 | Cc1nc2n(n1)CCN(C(=O)Cc1c(C)[nH]c3ccc(F)cc13)C2 [CBK284355] | 127.911
19 | Clc1ccc(COc2ccccc2OCc2ccccc2)s1 [CBK002766] | 96.106
20 | CN1CCN(C(=O)c2ccsc2NS(=O)(=O)c2ccc(-c3ccccc3)cc2)CC1 [CBK042274] | 111.123
21 | COc1cc(CNC(=O)N2CCC(C(=O)O)CC2)cc(OC)c1OC [CBK161401] | 133.285
22 | O=C(Cn1nnc(-c2ccc3c(c2)OCO3)n1)Nc1ccccc1C(=O)O [CBK268025] | 90.5818
23 | O=C(Nc1ncnc2c1[nH]c(=O)n2C1CC(O)C(CO)O1)c1ccccc1 (stereo not shown) [CBK201250] | 106.589
24 | O=C(O)c1cc(NC(=O)c2ccc(Oc3ccc([N+](=O)[O-])cc3)cc2)cc(C(=O)O)c1 [CBK261188] | 115.331
25 | O=C(C1CCCC1)N1CCC(c2nnc(-c3ccsc3)o2)CC1 [CBK283379] | 129.057
26 | Cc1cc(N2CCN(c3ccccc3)CC2)nc(-c2ccccc2O)n1 [CBK116405] | 124.037

Four records drawn at random from those above:
Row | SMILES | % of control remaining [%]
1 | O=S(=O)(Nc1nccnc1-c1ccc2c(c1)OCO2)c1ccc(Cl)cc1 [CBK050952] | 107.929
17 | CN1C(=O)[C@@H](OC(=O)c2cccnc2)C[C@H]1c1ccc(F)cc1 [CBK283649] | 115.681
24 | O=C(O)c1cc(NC(=O)c2ccc(Oc3ccc([N+](=O)[O-])cc3)cc2)cc(C(=O)O)c1 [CBK261188] | 115.331
5 | OCC1CCCN1c1nccnc1-c1cccc(O)c1 (stereo not shown) [CBK089052] | 92.9465

Going on with the list.

Row | SMILES | % of control remaining [%]
27 | Cc1cc(CN(C)Cc2ccc(N3CCCC3)c(F)c2)n[nH]1 [CBK281953] | 84.9798
28 | COc1ccccc1CN(CC1CCNCC1)C(=O)Nc1c(C)noc1C [CBK049739] | 64.6452
29 | CN(C)CCN(Cc1cccnc1)C(=O)Cc1ccc2c(c1)CCC2 [CBK282770] | 82.3771
30 | COc1cc(OC)c2c(c1)OC1(CCN(C(=O)C3CCCO3)CC1)CC2=O (stereo not shown) [CBK156476] | 99.1273
31 | Cc1cc(OCC(=O)NCc2cccnc2)cc(C)c1Cl [CBK263658] | 117.545
32 | O=C(NC1CC2(CCCC2)Oc2ccccc21)C1CCCO1 (stereo not shown) [CBK282420] | 100.928
33 | NC(=O)c1ccc(C(=O)NCC2CN3CCCN2CC3)cc1 (stereo not shown) [CBK304143] | 117.49
34 | O=C(CCn1c(=O)oc2ccccc21)Nc1ccc(S(=O)(=O)N2CCCCC2)cc1 [CBK268365] | 165.844
35 | COc1ncc(-c2cncc(Nc3ccccc3)n2)c(OC)n1 [CBK065282] | 135.541
36 | CCCc1[nH]nc(O)c1CCc1ccccc1F [CBK075080] | 108.426
37 | CC(C)c1nsc(NS(=O)(=O)c2cc(C(F)(F)F)cc(C(F)(F)F)c2)n1 [CBK051263] | 147.459
38 | Cc1cc(C)n(C(=O)CCC(=O)Nc2cccc(Cl)c2C)n1 [CBK263851] | 113.051
39 | Cc1cccn2cc(CCNC(=O)N[C@H](C)C(=O)N(C)C)nc12 [CBK304617] | 94.0122
40 | COCCC(=O)N1C2CCC(C2)[C@@H]1COc1ccc(F)cc1 (stereo partly shown) [CBK284604] | 121.804
41 | CCOc1ncccc1CNc1ncnc2c1cnn2CCO [CBK305964] | 140.401
42 | O=C1NCC2(CCN(C(=O)c3cccs3)CC2)Oc2ccccc21 [CBK282917] | 115.261
43 | COc1ccc(-c2cnc(N)c(NCCCN3CCOCC3)n2)c(OC)c1OC [CBK063676] | 118.605
44 | O=C(CN1CCN(Cc2ccccc2)CC1)Nc1ccccc1Oc1ccccc1 [CBK074782] | 110.8
45 | CC(=O)NC(C)(COc1nonc1C)COc1nonc1C [CBK265955] | 101.139
46 | O=S(=O)(NCCN1CCOCC1)c1cc(Cl)ccc1Cl [CBK261757] | 101.201
47 | O=S(=O)(NCCSCc1c(Cl)cccc1Cl)c1ccc(Cl)cc1 [CBK265304] | 124.314
48 | CC(C)(C)c1ccc(OCc2nnc(S)n2N)cc1 [CBK268421] | 103.467
49 | C=C(C)Cn1c(SCC(C)C)nnc1-c1ccccc1F [CBK200077] | 93.475
50 | COc1ccc(C=CC(=O)ONC(=O)c2ccc(OC(F)F)cc2)cc1OC [CBK296098] | 115.486
51 | CC(NS(=O)(=O)c1ccc(CCC(=O)O)cc1)c1ccccc1 (stereo not shown) [CBK267058] | 183.255
52 | Cc1cccnc1CN(C)C(=O)c1cccc(NC(=O)C2CCCC2)c1 [CBK306913] | 128.936
